Measured values from PMC5450191.

Protein sequences, listed by entry. Tags and fused reporters are not part of them. Lines headed by an entry give the natural chain unless they say otherwise; changes in a name come on top. Chains listed by the source or under a name are the forms on record and can include a tag or linker.
GFP–Nup185 (I7MFN0, form named): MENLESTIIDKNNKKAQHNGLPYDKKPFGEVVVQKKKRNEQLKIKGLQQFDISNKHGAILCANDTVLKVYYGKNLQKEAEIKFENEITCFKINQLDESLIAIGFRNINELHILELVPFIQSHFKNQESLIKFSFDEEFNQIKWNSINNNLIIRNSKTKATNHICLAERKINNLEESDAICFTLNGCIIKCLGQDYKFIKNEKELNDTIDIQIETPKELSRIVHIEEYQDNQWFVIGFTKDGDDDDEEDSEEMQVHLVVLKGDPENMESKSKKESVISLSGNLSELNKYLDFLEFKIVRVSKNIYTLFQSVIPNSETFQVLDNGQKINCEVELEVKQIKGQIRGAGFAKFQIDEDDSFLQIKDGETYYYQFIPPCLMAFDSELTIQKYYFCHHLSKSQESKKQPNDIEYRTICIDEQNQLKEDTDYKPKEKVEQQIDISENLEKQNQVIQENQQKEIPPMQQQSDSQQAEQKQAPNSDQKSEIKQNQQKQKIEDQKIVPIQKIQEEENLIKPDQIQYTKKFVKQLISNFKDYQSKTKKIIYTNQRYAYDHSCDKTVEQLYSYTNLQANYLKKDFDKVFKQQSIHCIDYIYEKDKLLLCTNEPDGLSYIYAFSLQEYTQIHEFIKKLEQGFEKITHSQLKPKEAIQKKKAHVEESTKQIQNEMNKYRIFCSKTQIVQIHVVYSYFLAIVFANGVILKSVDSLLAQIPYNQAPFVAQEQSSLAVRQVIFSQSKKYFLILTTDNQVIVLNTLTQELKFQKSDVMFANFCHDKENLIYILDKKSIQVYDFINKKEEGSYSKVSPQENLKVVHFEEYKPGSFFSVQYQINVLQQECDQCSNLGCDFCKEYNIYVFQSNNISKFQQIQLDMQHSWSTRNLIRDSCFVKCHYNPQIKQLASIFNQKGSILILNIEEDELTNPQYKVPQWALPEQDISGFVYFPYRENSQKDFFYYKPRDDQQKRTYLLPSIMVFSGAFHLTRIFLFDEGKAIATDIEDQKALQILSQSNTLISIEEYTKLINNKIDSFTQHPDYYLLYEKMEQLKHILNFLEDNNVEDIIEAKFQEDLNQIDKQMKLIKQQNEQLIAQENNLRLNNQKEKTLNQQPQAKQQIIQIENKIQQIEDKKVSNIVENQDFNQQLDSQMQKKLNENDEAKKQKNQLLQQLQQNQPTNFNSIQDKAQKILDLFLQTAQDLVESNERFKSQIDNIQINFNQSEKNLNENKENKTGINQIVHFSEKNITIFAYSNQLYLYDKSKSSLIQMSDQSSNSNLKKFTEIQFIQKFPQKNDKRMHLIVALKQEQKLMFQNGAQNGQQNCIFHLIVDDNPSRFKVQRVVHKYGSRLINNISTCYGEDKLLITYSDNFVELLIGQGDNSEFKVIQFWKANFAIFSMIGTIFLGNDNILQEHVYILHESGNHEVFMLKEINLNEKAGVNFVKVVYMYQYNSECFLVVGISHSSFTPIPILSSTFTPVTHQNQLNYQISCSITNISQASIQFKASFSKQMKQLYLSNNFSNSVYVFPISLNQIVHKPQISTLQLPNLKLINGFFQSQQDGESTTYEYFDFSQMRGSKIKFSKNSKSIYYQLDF
UniProt Q236D1: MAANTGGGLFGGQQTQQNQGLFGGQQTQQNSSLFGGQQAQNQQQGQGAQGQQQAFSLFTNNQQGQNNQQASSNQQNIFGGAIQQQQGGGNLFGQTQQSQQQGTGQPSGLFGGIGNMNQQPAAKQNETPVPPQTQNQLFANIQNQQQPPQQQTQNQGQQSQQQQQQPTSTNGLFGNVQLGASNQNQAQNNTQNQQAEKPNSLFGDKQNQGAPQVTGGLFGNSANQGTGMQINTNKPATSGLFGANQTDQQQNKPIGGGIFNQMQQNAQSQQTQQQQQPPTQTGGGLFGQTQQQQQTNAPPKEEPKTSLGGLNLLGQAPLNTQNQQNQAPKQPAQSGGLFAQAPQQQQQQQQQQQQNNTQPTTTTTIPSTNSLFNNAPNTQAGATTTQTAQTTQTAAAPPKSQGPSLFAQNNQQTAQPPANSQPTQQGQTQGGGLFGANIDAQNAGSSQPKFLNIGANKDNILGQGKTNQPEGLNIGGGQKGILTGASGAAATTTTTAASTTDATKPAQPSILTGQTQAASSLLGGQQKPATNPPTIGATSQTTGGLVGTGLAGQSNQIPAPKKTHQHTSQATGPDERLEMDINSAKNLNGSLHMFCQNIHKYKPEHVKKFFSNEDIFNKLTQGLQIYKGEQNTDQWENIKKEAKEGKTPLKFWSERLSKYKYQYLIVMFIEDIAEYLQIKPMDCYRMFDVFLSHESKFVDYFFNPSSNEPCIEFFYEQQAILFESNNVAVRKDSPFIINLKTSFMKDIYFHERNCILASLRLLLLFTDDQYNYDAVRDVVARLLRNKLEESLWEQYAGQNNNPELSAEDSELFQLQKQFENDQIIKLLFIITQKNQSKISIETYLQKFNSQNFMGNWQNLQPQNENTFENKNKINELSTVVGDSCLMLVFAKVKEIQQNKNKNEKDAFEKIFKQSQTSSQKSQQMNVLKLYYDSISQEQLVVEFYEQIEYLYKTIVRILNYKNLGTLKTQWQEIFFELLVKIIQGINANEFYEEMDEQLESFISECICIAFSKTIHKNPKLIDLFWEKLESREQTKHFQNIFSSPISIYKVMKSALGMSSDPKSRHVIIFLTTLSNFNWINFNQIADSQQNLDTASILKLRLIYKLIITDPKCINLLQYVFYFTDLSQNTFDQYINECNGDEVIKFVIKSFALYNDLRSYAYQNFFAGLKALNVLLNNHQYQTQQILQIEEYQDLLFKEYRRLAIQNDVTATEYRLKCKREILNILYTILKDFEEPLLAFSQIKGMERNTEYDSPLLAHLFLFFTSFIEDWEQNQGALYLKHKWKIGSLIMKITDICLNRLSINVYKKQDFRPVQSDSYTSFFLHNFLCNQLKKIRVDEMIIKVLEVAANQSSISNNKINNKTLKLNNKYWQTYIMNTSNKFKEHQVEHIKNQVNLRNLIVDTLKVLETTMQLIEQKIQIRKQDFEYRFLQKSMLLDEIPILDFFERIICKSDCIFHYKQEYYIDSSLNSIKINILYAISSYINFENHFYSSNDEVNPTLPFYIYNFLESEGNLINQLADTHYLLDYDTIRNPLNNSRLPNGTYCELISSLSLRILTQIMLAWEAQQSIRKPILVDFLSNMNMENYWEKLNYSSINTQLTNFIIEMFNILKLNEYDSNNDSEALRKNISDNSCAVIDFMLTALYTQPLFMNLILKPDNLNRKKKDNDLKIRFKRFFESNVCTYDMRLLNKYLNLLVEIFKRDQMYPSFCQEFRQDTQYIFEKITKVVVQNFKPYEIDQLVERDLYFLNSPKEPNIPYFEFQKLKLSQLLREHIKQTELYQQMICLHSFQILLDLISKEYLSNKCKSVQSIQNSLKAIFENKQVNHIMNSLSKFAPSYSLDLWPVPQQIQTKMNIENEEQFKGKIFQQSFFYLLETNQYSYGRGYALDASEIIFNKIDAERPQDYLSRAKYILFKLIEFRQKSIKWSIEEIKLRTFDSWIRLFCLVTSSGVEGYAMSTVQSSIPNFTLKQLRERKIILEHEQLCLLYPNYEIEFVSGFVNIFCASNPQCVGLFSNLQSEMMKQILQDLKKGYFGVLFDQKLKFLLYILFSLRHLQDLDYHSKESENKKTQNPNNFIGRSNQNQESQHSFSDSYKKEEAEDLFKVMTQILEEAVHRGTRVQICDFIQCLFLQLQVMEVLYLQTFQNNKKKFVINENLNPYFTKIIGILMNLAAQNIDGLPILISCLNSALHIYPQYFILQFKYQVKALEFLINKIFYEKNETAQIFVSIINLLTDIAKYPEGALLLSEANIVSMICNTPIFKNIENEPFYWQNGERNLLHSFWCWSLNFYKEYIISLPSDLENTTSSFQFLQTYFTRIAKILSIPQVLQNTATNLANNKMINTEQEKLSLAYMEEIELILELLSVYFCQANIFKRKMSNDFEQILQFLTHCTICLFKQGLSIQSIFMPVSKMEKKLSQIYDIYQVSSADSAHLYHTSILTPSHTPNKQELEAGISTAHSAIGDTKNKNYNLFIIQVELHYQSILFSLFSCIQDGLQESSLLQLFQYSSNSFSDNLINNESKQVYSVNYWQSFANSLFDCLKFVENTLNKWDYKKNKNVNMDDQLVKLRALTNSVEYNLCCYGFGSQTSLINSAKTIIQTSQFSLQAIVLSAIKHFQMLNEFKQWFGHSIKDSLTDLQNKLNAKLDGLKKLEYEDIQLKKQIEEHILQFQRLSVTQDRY

B1: TtNup58 (protein, UniProt Q23K55 1-390)
chain: MSLFNQNQGVQIGGQKPGGLFQTTTTGQQGGGLFNNQPSLQLGGNQTGGLPVFGGNQQPAAGGTIFNNPIGQQAPAQGQGGIFANQKPIVQNQTQTNNQQQIQHTVQSQTWKEAKQLYQQLQNVKKEQISIERDVNVSDNNNIYAHKPVNILPKEFFDELTNINKDIQKTEQDVAKLVDSQRELFNQIQETRKVIQQSSLSLKQTAQQVKDIQETVNELITEQQDQKQYITNFFYTFTNYLENHQFPRLILPQPFIIKAQEKFQLKLEKLQRQIDEVEQMLQVEIQKRNDEEELAFIFVIVEQLFKYFNNVTALVYEFHKHYESFRMKIVHIQDQREFGFASDLNESTKQSLNEENRYFKLLSNISDNLEKQIRKHEEEQQIKQPNEKRI
B2: TtTpr (protein, UniProt I7ME84 1-1392)
chain: MDSNQAADQEKQVEAQNEEQKQEQENNEQKENESEQAQTDPQISSGSNQKFDIEITDEDNDPEIENNQTIEQMKFKAYDLKAELKKVGNLAEELKVKFANLETDYDQCKDEKEELEKKYKQSIEKYGEMMKNYEHQIISLENENNIRIQQLQQQIDELKKQNEEKEQSYLNMQQQIKQDKQSFDDIQNKYEEINKHNQEQFKQNSDQWVKLVNLTEEVIFNFYNSNFFTENKDDISSQTHIILQHQQTFQQLIEKYVTFLAEQKEKNEAISDEAFNKIKSENGNGVQKTNQRVQDLQQKFEAYQQQFNKLNSESQENETKLQETKKQLEDLQNELGNKNNQIQELNEQHQKSQTEIQKLNEQITSNQQRIEELQKNENILVEKDKNINEIKEQLSALNQQIEGFKDIQNKLDTKTEEFEKLEKDFNQQKSELEEKIKSKDEEIENLSKKIQDIVEQQQEKQKQLDDLNSNLQNSNKENEQLKQEINDFKNKINNSNQDQEQQSNQLKAELKQTQEQLNDSQQKFEQADKELKDLKQQIEDEKVKLNDKSQESENLKDQLKSANEKLNESQQKLEQIQKNFDDLKQNNDLQKIVDEKQQKCEELERELKELKTQQEQVTAQVQQLNVEKEEIQTKFNQVEQEKEQLKKQEQEKIDLLSQAKQEKENNEQEINNLKQTIANLEKERTDIQIQSQEKDKQLDDAKHTLENLNKEIEQLKNQNQAIGDVNEKNKQLESEITQIKSEIEQKNTEIQSLNSKNETEISEKKQQLEDHTKQVNQLNEQIHQLSTENENLKNEIQTNQNISQTKLTDLNSEIEGFQKEIEETKLQLDDKNTQLKGLQVKLEALEKQLLEKNEEIQKVNQQLKESEQKHEAIQKQNEELQNSLKTLEEKDYNQIQNDLNQQVSDLKQKEQDLNKQLDQKLQEINQIKQQLSNETSDFMKKNVQLQQTIQQLNQTISQYQEQIERIKTDLYQSQQEKSQLQSKLNEANREIQNKEDDLNKKVEIIAELEQNNKDLKINLHNYEVKSYDLDKERFDVLEIQIQHNKEQQVQYKQAEEKIQKLEEEIKKLLADKTDSLEKLQKEIKTEQVIGEEMSKKFRSNLAELQINNEQNSLENSQKTINQLAEVVLRKVKDCFYSSTKIVQISRLFYDGSDGRNASQDNALSLIQELNEAQHASITIHKLLGFEYKKFKNILPIQYLRNDFKVINQTENTTQPLYVNENDQVAQYAIVNYEIQNNKFYVGLIQFDVVSTYFRVGFVPVNPQTKQEQWGEAIYANFCLNHEAANSKNYRNLVRINHFNPIFSIKKGYIYIRFNIQKNIFQFCDTNYQLSELSKCQFKSDLHYKLFIGMKETKGHFQIVDLKEQSRDEDINIMTQIFSNEQPQFEDLIRLFI

What was measured:
[1] = target: T1, GFP–TtNup93 (T. thermophila) (UniProt Q241A4); test: affinity purification with mass spectrometry; anti-GFP rabbit polyclonal antibody and Protein-A–Sepharose on sonicated lysate of GFP–Nup-expressing T. thermophila cells in logarithmic growth; 150 mM NaCl, 1% Triton X-100, 4°C; bound proteins separated by SDS-PAGE, trypsinized, LC-MS/MS
T1 sequence: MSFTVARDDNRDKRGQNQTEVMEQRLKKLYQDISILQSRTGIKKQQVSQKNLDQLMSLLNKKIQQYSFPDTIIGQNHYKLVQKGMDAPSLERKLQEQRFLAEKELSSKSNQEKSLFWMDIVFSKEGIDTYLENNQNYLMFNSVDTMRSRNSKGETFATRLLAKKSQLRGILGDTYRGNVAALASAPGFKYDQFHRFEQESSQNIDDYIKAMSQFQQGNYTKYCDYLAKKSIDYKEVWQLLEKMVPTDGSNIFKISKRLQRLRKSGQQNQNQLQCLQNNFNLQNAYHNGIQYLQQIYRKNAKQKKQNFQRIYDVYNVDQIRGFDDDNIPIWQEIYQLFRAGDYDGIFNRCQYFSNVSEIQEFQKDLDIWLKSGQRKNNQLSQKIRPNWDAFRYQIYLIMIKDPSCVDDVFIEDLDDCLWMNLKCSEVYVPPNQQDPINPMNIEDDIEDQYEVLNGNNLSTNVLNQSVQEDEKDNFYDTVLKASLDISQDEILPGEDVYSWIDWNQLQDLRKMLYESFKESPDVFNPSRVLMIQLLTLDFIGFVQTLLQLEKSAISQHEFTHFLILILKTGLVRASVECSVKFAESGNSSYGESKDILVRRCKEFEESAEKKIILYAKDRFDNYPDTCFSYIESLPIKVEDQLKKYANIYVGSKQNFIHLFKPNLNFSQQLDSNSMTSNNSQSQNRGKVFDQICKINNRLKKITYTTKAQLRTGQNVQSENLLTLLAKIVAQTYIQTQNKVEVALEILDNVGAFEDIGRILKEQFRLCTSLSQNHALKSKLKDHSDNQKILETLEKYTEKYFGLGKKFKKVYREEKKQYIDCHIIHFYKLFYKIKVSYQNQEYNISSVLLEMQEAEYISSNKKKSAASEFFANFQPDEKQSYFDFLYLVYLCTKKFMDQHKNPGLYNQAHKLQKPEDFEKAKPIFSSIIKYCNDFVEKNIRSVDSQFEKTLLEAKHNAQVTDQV

[2] = target: GFP–Nup185 (T. thermophila) (UniProt I7MFN0); test: as above

Molecule	binding [1]	binding [2]
Nup308 (from UniProt Q236D1 1-2675)	binds	
B1	binds	
B2		binds

No constants are given. Whether binding was seen depends on the method and setting. Binding seen in cells or lysates may run through a third protein. A yes stands for co-enrichment or nearness to the bait. Other partners may have been found. For part of these data: Tags and fused reporters may be left off the sequences shown.
